Results taken from PMC1906764.
These are yes or no findings as the source states them, for the method shown. Some entries that bind do so weakly or less than the wild type. For some assays here: Where a sequence is shown, tags or fusion partners need not be part of it.

T1: recombinant PPT1 purified from stably transfected CHO cells, P50897
T1 chain: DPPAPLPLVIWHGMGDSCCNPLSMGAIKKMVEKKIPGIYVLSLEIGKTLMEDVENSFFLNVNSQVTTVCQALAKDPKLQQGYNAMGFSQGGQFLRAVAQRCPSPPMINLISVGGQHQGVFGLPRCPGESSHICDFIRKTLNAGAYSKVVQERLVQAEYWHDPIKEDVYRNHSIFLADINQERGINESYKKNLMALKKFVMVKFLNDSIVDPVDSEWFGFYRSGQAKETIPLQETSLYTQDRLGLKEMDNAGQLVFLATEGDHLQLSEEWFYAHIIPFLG


Legend:
[1] = biological target: aspartylglucosaminidase (AGA), endogenous in PC12 cells (rat (endogenous in PC12)) (UniProt P30919); assay: SEC; solubilised and filtrated 10 000 g pellet of PC12 postnuclear supernatant; Superdex 75 column in PBS at room temperature, 0.25 ml/min (the results name Superose 6HR); PPT1 and AGA enzyme activities measured in the fractions
[2] = biological target: T1, recombinant PPT1 purified from stably …; assay: SPR; Biacore 2000; purified PPT1 amine-coupled to the chip in a saturating amount; varying concentrations of PPT1 as analyte in Hepes buffered saline, pH 5 and pH 7.4; empty flow cell as control; both purified; conditions: remark: other sources report otherwise

Row | binding [1] | binding [2] | Binder
1 | binds | – | aspartylglucosaminidase (AGA), endogenous in PC12 cells (enzyme, UniProt P30919 24-345) SNPLPLVVNTWPFKNATEAAWWTLVSGGSALDAVEKGCAMCEKEQCGGTVGFGGSPDEVGETTLDAMIMDGTAMDVGAVGGLRRIKNAIGVARKVLEHTTHTLLVGDSATKFAVSMGFTSEDLSTNTSRALHSDWLSRNCQPNYWRNVIPDPSKYCGPYKPPDFLEQNNRAHKEVDIHSHDTIGMVVIHKTGHTAAGTSTNGLKFKIPGRVGDSPIPGAGAYADDMAGAAAATGDGDTLLRFLPSYQAVEYMRGGDDPARACQKVISRIQKYYPKFFGAVICANVTGSYGAACNRLPTFTQFSFMVYNSLHNQAIEEKVDCM
2 | – | no binding | recombinant PPT1 purified from stably transfected CHO cells, P50897 28-306 (enzyme) DPPAPLPLVIWHGMGDSCCNPLSMGAIKKMVEKKIPGIYVLSLEIGKTLMEDVENSFFLNVNSQVTTVCQALAKDPKLQQGYNAMGFSQGGQFLRAVAQRCPSPPMINLISVGGQHQGVFGLPRCPGESSHICDFIRKTLNAGAYSKVVQERLVQAEYWHDPIKEDVYRNHSIFLADINQERGINESYKKNLMALKKFVMVKFLNDSIVDPVDSEWFGFYRSGQAKETIPLQETSLYTQDRLGLKEMDNAGQLVFLATEGDHLQLSEEWFYAHIIPFLG
